In PMC9875608:
Results are given in words; binding and its absence hold for the method and conditions named. Binding seen in cells or lysates may run through a third protein. Some entries that bind do so weakly or less than the wild type. Sequences can lack the tags named with a protein.

Amino acid sequences for entries named in this document (tags omitted). Residues count along the entry.
UniProt P38646, residues 47-679: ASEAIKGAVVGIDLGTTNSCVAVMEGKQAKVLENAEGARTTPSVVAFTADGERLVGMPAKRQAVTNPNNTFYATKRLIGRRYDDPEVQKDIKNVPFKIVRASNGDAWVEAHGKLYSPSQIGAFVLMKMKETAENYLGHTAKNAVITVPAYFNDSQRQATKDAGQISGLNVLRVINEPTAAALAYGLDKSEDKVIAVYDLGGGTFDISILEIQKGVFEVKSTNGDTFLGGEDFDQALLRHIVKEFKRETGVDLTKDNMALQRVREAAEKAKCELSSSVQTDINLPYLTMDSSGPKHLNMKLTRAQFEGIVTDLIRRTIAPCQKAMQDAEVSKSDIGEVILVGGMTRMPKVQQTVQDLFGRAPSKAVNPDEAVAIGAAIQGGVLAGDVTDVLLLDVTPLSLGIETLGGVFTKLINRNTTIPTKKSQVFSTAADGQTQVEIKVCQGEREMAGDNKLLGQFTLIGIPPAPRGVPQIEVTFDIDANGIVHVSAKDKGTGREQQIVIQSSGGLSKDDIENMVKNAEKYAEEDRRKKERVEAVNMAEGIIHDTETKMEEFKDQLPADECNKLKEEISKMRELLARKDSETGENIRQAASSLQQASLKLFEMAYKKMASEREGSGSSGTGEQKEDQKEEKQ

Target: T1, HA-VDAC2-WT (pCDNA3) (UniProt P45880)
T1 sequence: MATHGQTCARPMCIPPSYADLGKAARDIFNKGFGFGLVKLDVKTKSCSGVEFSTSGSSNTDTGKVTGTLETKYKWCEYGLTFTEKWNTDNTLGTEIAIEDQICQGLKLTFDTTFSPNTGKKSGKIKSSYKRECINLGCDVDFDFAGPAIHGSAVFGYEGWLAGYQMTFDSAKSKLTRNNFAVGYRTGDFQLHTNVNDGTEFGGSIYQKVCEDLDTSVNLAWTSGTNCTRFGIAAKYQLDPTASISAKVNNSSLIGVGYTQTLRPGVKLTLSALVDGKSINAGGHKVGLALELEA
Experiment: co-IP; HA-IP (anti-HA agarose) from HEK293T cells transfected with the indicated constructs, immunoblot; Figures 3Q, 4H, 4J

binding: binds
Substance: GRP75 (construct of the experiment not stated) (from UniProt P38646 47-679)
